These results are taken from paper PMC8164048.

Chains of the proteins cited; added tags and fusions are not shown. Residues count along the entry.
UniProt Q07954, residues 20-4544: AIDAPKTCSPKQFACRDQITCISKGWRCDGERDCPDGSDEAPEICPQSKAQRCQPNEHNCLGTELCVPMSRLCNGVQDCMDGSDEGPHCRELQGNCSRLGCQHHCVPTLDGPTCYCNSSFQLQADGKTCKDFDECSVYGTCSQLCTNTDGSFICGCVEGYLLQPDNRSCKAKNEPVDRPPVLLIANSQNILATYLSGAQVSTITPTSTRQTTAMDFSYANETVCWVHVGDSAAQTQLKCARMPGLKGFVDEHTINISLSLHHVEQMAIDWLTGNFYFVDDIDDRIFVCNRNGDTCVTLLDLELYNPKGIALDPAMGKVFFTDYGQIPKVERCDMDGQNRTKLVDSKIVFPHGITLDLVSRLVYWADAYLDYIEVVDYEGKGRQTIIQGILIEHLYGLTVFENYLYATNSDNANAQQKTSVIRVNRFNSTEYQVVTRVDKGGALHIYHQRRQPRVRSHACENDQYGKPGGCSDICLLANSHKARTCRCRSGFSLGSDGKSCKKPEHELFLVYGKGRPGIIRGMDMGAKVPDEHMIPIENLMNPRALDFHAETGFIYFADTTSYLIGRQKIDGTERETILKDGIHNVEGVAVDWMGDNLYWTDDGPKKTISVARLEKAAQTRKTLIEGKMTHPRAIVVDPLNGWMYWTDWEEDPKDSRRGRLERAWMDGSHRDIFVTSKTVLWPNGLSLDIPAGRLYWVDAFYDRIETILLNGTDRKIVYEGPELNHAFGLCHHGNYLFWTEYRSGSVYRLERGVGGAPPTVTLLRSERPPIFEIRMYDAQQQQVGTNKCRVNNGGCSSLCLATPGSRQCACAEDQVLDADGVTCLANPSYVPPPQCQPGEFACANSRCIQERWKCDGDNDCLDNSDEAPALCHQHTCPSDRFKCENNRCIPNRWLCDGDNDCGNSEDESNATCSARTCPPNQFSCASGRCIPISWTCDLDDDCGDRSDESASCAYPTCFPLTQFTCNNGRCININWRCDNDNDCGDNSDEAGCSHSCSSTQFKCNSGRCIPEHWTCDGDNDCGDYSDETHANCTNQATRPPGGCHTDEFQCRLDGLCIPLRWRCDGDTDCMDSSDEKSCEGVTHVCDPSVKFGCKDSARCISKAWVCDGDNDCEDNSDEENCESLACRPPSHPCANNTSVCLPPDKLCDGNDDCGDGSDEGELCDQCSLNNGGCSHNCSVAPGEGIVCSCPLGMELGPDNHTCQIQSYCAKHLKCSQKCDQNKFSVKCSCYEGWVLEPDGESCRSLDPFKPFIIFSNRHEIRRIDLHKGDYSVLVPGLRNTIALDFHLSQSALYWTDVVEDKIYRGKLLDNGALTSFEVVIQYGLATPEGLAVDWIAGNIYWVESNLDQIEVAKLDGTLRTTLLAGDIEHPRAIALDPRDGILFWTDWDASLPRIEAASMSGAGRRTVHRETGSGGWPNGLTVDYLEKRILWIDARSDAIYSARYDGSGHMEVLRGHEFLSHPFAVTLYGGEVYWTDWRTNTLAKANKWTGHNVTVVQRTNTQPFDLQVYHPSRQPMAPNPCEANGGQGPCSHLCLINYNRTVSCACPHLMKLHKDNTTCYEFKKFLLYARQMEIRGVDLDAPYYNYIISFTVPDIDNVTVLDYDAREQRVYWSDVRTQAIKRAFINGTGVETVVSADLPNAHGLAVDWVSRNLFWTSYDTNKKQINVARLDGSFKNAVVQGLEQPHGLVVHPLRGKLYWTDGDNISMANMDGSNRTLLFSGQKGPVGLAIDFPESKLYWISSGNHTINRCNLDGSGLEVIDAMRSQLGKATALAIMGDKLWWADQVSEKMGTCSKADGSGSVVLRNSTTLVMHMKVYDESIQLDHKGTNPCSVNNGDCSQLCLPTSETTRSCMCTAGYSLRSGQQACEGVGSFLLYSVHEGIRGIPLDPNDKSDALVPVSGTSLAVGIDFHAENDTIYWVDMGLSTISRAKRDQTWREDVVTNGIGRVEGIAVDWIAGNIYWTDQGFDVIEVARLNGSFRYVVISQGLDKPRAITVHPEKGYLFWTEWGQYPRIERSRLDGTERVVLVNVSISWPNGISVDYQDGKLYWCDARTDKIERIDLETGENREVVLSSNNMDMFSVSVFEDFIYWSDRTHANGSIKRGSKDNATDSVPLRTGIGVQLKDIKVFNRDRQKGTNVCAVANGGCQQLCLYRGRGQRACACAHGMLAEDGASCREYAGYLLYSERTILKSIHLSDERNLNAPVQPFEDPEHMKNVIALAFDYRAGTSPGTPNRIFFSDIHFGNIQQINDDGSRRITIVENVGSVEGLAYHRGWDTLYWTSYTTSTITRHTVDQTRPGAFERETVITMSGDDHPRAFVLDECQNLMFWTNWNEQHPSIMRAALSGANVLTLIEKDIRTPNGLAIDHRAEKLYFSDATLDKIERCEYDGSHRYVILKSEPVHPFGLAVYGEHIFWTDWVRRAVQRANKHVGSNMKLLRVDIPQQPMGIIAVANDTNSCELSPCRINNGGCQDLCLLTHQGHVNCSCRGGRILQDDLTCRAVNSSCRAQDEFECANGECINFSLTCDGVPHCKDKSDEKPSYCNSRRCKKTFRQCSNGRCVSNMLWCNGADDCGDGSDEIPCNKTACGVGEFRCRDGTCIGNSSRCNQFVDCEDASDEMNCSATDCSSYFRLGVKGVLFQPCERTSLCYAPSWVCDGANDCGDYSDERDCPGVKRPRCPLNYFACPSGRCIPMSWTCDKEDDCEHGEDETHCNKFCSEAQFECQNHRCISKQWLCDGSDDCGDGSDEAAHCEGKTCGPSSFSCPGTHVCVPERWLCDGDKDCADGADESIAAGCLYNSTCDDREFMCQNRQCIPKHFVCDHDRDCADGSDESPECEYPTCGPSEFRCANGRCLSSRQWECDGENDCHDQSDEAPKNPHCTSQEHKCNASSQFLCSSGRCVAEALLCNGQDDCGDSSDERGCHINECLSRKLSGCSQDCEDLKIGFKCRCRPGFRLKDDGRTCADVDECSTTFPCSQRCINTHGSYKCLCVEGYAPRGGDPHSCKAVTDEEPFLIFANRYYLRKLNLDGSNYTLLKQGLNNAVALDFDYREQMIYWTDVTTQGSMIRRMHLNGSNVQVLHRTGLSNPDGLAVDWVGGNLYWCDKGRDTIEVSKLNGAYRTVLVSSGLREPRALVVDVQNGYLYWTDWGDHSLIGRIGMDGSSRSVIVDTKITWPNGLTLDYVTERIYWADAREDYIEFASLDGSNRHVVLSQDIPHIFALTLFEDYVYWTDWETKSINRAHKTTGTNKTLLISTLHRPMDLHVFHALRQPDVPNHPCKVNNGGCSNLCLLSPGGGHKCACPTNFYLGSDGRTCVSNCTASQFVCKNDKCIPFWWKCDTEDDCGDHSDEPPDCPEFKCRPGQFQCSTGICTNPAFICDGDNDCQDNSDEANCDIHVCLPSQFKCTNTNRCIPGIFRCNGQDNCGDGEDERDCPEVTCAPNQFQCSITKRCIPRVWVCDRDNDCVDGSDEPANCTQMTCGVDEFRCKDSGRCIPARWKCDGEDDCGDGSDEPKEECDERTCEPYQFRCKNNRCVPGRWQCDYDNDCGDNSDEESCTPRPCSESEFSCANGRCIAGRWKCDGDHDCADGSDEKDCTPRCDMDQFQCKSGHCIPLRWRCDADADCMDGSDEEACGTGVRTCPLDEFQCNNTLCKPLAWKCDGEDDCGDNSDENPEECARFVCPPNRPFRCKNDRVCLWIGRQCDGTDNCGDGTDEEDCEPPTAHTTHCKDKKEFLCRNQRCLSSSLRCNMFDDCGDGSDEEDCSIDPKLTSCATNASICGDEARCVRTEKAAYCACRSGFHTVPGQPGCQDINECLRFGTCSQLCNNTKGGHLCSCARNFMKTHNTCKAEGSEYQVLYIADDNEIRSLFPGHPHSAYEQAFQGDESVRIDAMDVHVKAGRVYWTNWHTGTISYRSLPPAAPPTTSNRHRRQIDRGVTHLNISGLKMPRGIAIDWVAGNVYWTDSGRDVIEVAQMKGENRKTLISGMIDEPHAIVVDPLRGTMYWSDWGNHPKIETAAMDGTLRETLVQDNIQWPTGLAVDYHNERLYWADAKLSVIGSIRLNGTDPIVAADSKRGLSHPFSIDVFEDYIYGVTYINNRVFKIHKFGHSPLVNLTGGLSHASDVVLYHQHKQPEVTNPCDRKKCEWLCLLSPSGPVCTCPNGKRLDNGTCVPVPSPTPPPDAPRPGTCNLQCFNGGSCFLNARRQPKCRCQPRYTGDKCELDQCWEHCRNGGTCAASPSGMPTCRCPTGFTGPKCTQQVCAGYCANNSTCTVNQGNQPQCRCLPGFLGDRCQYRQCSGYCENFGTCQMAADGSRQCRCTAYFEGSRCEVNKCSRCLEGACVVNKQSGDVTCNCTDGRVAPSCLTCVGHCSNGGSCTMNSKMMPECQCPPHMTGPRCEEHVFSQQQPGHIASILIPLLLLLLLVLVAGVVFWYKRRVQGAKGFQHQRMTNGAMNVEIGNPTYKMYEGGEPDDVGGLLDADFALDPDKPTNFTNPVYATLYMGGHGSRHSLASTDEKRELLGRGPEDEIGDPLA
UniProt P30533, residues 35-357: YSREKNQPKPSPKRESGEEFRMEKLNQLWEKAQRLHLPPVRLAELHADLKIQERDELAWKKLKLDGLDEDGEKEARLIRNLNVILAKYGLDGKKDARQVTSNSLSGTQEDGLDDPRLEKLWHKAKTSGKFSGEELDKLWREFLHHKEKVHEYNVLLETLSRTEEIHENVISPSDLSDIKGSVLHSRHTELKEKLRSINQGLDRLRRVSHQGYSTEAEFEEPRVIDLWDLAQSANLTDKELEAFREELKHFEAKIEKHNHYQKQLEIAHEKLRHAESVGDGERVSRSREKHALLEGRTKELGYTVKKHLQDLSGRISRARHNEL

Results are given in words; binding and its absence hold for the method and conditions named. Some binding calls cover weakened binding; strength is not graded here.

In the experiment the target is Full-length human low-density lipoprotein receptor-related protein 1 (LRP1) (human) (UniProt Q07954). Briefly: SPR; LRP1-coated surface; coinjection experiment, tau with excess RAP; both purified. (In SPR one partner is held on a chip, and binding of the other changes the refractive index at the surface.)

For the substance “receptor-associated protein (RAP) (from UniProt P30533 35-357)”, the binding entry was “binds”.
